Test results: PubChem BioAssay AID248 (DTP/NCI, 2004)
The list does not hold the whole screen: it is rich in T/C values a quarter to a half above the control, in often repeated tests (any T/C) and in doses without a T/C. Further doses and runs are listed elsewhere. T/C is the treated group as % of the vehicle group. Some doses have a count of surviving animals in place of a T/C: the source holds a T/C of zero for them, seemingly a mark for toxic or unscored doses. Some doses without a T/C left all or most animals alive at the check, yet need not have been tolerated: the source hardly ever lists a survival T/C far under the control, and the zero likely stands for such cases as well. Counts of survivors are from the toxicity check (mostly the fifth day) where no day follows; animals may have died later. Schedules are NCI's codes, read here as Q, the interval in days (D) or hours (H), X, the number of doses. Some doses were run more than once; the values are given in rising order.

Test system: L1210 leukemia ip in BDF1 mice, survival T/C
Experiment: NCI In Vivo Anticancer Drug Screen. Data for tumor model L1210 Leukemia (intraperitoneal) in B6D2F1 (BDF1) mice
Settings: T/C endpoint: mean survival time, higher T/C = longer survival

How did the survivor count (dose: 40.0 mg/kg/injection, schedule: Q01DX001 (ip), vehicle: saline) turn out when `CC(C)(C)C1COC(=O)C1` (stereo unspecified) was run?
The survivor count was 1 of 6.

And the survivor count (dose: 75.0 mg/kg/injection, schedule: Q01DX001 (ip), vehicle: acetone)?
Its survivor count is 0 of 6.

And the survivor count (dose: 150.0 mg/kg/injection, schedule: Q01DX001 (ip), vehicle: acetone)?
Its survivor count is 0 of 6.

What about the survivor count (dose: 300.0 mg/kg/injection, schedule: Q01DX001 (ip), vehicle: acetone) of the same compound?
Its survivor count is 1 of 6.

Which results are given for `CCN(CC)CCN(C)C(=O)C1C(c2ccccc2)C1c1ccccc1` (stereo unspecified)?
survivor count (dose: 100.0 mg/kg/injection, schedule: Q04DX002 (ip), vehicle: Klucel (hydroxypropylcellulose) (HPC)): 1 of 3 and 3 of 3; survivor count (dose: 200.0 mg/kg/injection, schedule: Q04DX002 (ip), vehicle: Klucel (hydroxypropylcellulose) (HPC)): 0 of 3; survivor count (dose: 400.0 mg/kg/injection, schedule: Q04DX002 (ip), vehicle: Klucel (hydroxypropylcellulose) (HPC)): 0 of 3

For `ClC1(c2ccccc2)C2CCCCC21` (stereo unspecified), which survivor count (dose: 300.0 mg/kg/injection, schedule: Q01DX001 (ip), vehicle: saline) is on record?
The survivor count was 3 of 6.

`O=c1[nH][nH]c(=O)c2cc3ccccc3cc12` was tested. Which survivor count (dose: 250.0 mg/kg/injection, schedule: Q01DX009 (ip), vehicle: Klucel (hydroxypropylcellulose) (HPC)) did it give?
The survivor count was 3 of 6.

`N#CCN1CCOCC1` was tested. Which survivor count (dose: 400.0 mg/kg/injection, schedule: Q01DX009 (ip), vehicle: saline) did it give?
The survivor count was 0 of 6.

And the survivor count (dose: 400.0 mg/kg/injection, schedule: Q04DX003 (ip), vehicle: saline)?
Its survivor count is 4 of 6.

With `O=C1NC(=S)S/C1=C/c1ccc(/C=C2/SC(=S)NC2=O)cc1` as the compound, how does the survivor count (dose: 200.0 mg/kg/injection, schedule: Q01DX001 (ip), vehicle: carboxymethylcellulose (CMC)) read?
The survivor count was 4 of 4.

And the survivor count (dose: 400.0 mg/kg/injection, schedule: Q01DX001 (ip), vehicle: carboxymethylcellulose (CMC))?
Its survivor count is 4 of 4.

For `Cc1ccnc(SC#N)n1`, which survivor count (dose: 20.0 mg/kg/injection, schedule: Q01DX001 (ip), vehicle: other) is on record?
Its survivor count is 2 of 4.

What about the survivor count (dose: 40.0 mg/kg/injection, schedule: Q01DX001 (ip), vehicle: other) of the same compound?
The survivor count was 0 of 4.

What about the survivor count (dose: 80.0 mg/kg/injection, schedule: Q01DX001 (ip), vehicle: other) of the same compound?
Its survivor count is 0 of 4.

What about the survivor count (dose: 100.0 mg/kg/injection, schedule: Q01DX001 (ip), vehicle: other) of the same compound?
Its survivor count is 0 of 4.

And the survivor count (dose: 200.0 mg/kg/injection, schedule: Q01DX001 (ip), vehicle: other)?
Its survivor count is 0 of 4.

And the survivor count (dose: 400.0 mg/kg/injection, schedule: Q01DX001 (ip), vehicle: other)?
Its survivor count is 0 of 4.

For `CC(=O)C1=C(O)c2ccccc2C(=O)C1=O`, which survivor count (dose: 200.0 mg/kg/injection, schedule: Q01DX001 (ip), vehicle: water) is on record?
Its survivor count is 0 of 6.

And the survivor count (dose: 400.0 mg/kg/injection, schedule: Q01DX001 (ip), vehicle: water)?
Its survivor count is 0 of 6.

With `N#[N+]c1nc[nH]c1C(N)=O` as the compound, how does the survivor count (dose: 2.6 mg/kg/injection, schedule: Q01DX001 (ip), vehicle: steroid suspending solution) read?
Its survivor count is 0 of 8.

What about the survivor count (dose: 3.8 mg/kg/injection, schedule: Q01DX001 (ip), vehicle: steroid suspending solution) of the same compound?
The survivor count was 1 of 8.

And the survivor count (dose: 5.4 mg/kg/injection, schedule: Q01DX001 (ip), vehicle: steroid suspending solution)?
Its survivor count is 0 of 8.

And the survivor count (dose: 5.4 mg/kg/injection, schedule: Q03HX008 (ip), vehicle: steroid suspending solution)?
The survivor count was 5 of 8.

And the survivor count (dose: 7.7 mg/kg/injection, schedule: Q01DX001 (ip), vehicle: steroid suspending solution)?
The survivor count was 1 of 8.

What about the survivor count (dose: 11.1 mg/kg/injection, schedule: Q01DX001 (ip), vehicle: steroid suspending solution) of the same compound?
The survivor count was 0 of 8.

And the survivor count (dose: 15.8 mg/kg/injection, schedule: Q01DX001 (ip), vehicle: steroid suspending solution)?
Its survivor count is 0 of 8.

What about the survivor count (dose: 22.6 mg/kg/injection, schedule: Q01DX001 (ip), vehicle: steroid suspending solution) of the same compound?
The survivor count was 0 of 8.

What about the survivor count (dose: 25.0 mg/kg/injection, schedule: Q01DX001 (ip), vehicle: steroid suspending solution) of the same compound?
Its survivor count is 1 of 8.

And the survivor count (dose: 50.0 mg/kg/injection, schedule: Q01DX001 (ip), vehicle: steroid suspending solution)?
The survivor count was 0 of 8.
